Test results as given in article doi:10.1101/2021.12.21.473719.

Key:
[1] = target: POPDC1Δ236 with a half of Venus for BiFC (transmembrane domain of POPDC1) (mouse); assay: split reporter
[2] = target: POPDC1Δ236-Myc (transmembrane domain of POPDC1, Myc-tagged) (mouse); assay: co-IP
[3] = target: GFP-tagged TREK-1 (human); assay: co-IP

B1: AC9-VN / AC9-VC (AC9 with a half of Venus for BiFC) (enzyme, UniProt O60503 1-1353)
chain: MASPPHQQLLHHHSTEVSCDSSGDSNSVRVKINPKQLSSNSHPKHCKYSISSSCSSSGDSGGVPRRVGGGGRLRRQKKLPQLFERASSRWWDPKFDSVNLEEACLERCFPQTQRRFRYALFYIGFACLLWSIYFAVHMRSRLIVMVAPALCFLLVCVGFFLFTFTKLYARHYAWTSLALTLLVFALTLAAQFQVLTPVSGRGDSSNLTATARPTDTCLSQVGSFSMCIEVLFLLYTVMHLPLYLSLCLGVAYSVLFETFGYHFRDEACFPSPGAGALHWELLSRGLLHGCIHAIGVHLFVMSQVRSRSTFLKVGQSIMHGKDLEVEKALKERMIHSVMPRIIADDLMKQGDEESENSVKRHATSSPKNRKKKSSIQKAPIAFRPFKMQQIEEVSILFADIVGFTKMSANKSAHALVGLLNDLFGRFDRLCEETKCEKISTLGDCYYCVAGCPEPRADHAYCCIEMGLGMIKAIEQFCQEKKEMVNMRVGVHTGTVLCGILGMRRFKFDVWSNDVNLANLMEQLGVAGKVHISEATAKYLDDRYEMEDGKVIERLGQSVVADQLKGLKTYLISGQRAKESRCSCAEALLSGFEVIDGSQVSSGPRGQGTASSGNVSDLAQTVKTFDNLKTCPSCGITFAPKSEAGAEGGAPQNGCQDEHKNSTKASGGPNPKTQNGLLSPPQEEKLTNSQTSLCEILQEKGRWAGVSLDQSALLPLRFKNIREKTDAHFVDVIKEDSLMKDYFFKPPINQFSLNFLDQELERSYRTSYQEEVIKNSPVKTFASPTFSSLLDVFLSTTVFLTLSTTCFLKYEAATVPPPPAALAVFSAALLLEVLSLAVSIRMVFFLEDVMACTKRLLEWIAGWLPRHCIGAILVSLPALAVYSHVTSEYETNIHFPVFTGSAALIAVVHYCNFCQLSSWMRSSLATVVGAGPLLLLYVSLCPDSSVLTSPLDAVQNFSSERNPCNSSVPRDLRRPASLIGQEVVLVFFLLLLLVWFLNREFEVSYRLHYHGDVEADLHRTKIQSMRDQADWLLRNIIPYHVAEQLKVSQTYSKNHDSGGVIFASIVNFSEFYEENYEGGKECYRVLNELIGDFDELLSKPDYSSIEKIKTIGATYMAASGLNTAQAQDGSHPQEHLQILFEFAKEMMRVVDDFNNNMLWFNFKLRVGFNHGPLTAGVIGTTKLLYDIWGDTVNIASRMDTTGVECRIQVSEESYRVLSKMGYDFDYRGTVNVKGKGQMKTYLYPKCTDHRVIPQHQLSISPDIRVQVDGSIGRSPTDEIANLVPSVQYVDKTSLGSDSSTQAKDAHLSPKRPWKEPVKAEERGRFGKAIEKDDCDETGIEEANELTKLNVSKSV
[1]
  binding: binds

B2: Flag-tagged AC9 (adenylyl cyclase type 9) (enzyme, UniProt O60503 1-1353)
chain: B1 chain
[2]
  binding: binds

B3: endogenous POPDC1 of HEK293 cells (protein, UniProt Q8NE79 1-360)
chain: MNYTESSPLRESTAIGFTPELESIIPVPSNKTTCENWREIHHLVFHVANICFAVGLVIPTTLHLHMIFLRGMLTLGCTLYIVWATLYRCALDIMIWNSVFLGVNILHLSYLLYKKRPVKIEKELSGMYRRLFEPLRVPPDLFRRLTGQFCMIQTLKKGQTYAAEDKTSVDDRLSILLKGKMKVSYRGHFLHNIYPCAFIDSPEFRSTQMHKGEKFQVTIIADDNCRFLCWSRERLTYFLESEPFLYEIFRYLIGKDITNKLYSLNDPTLNDKKAKKLEHQLSLCTQISMLEMRNSIASSSDSDDGLHQFLRGTSSMSSLHVSSPHQRASAKMKPIEEGAEDDDDVFEPASPNTLKVHQLP
[3]
  binding: binds

B4: POPDC1-Myc (Popeye domain-containing protein 1, Myc-tagged) (protein, UniProt Q9ES83 1-358)
chain: MNSTESIPLAQSTVAGFTSELESLTPVPSNETTCENWREIHHLVFHVANVCFAVGLLIPTTLHLHMILLRVMLSLGCTLYVVWATLYRCALDVMIWNSVFLGINILHLSYLLYKKRPVKIEKELGGVYHRLFEPLRVPPDLFRRLTGQFCMIQTLKRGQVYATEDKTSVDDRLSILLKGRMKVSYRGHFLHNIYPCAFIDSPEFRSTQMHKGEKFQVTIVADDNCRFLCWSRERLTYFLESEPFLYEIFRYLIGKDITNKLYSLNDPTLNDKKVKKLEPQMSLCTQISMLEMRNSITSSSDGEDGLHHFLRGSSSTASLPMSSPQQRASAKMKPIEEGVEDDDEVFVSPDALKVHQLP
[3]
  binding: binds

No constants are given. Whether binding was seen depends on the method and setting. Binding seen in cells or lysates may run through a third protein. A result given as binding can be weak or reduced; the word gives no strength. For some of these results: Sequences can lack the tags named with a protein.
